In publication PMC12518634, “The noncanonical function of liver-type phosphofructokinase potentiates the efficacy of HDAC inhibitors in cancer” (Signal Transduction and Targeted Therapy, 2025):
Results are given in words; binding and its absence hold for the method and conditions named. For some assays here: Binding seen in cells or lysates may run through a third protein. Some results given as binding are weak or reduced against the parent protein; the word gives no strength. For some assays here: Sequences can lack the tags named with a protein.

Chains of the proteins cited; added tags and fusions are not shown.
UniProt O15379: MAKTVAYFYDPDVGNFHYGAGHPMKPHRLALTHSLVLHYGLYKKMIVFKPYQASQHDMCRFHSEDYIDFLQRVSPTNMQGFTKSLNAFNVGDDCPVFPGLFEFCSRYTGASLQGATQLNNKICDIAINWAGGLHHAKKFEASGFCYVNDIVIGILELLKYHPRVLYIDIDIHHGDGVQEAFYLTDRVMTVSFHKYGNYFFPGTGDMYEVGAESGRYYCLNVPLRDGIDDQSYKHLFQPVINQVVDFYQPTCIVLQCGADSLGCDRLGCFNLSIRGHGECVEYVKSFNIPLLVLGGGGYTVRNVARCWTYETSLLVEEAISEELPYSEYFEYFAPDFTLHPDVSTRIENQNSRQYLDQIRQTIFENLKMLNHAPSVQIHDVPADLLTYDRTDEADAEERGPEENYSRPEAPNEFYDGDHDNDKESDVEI
UniProt Q92769: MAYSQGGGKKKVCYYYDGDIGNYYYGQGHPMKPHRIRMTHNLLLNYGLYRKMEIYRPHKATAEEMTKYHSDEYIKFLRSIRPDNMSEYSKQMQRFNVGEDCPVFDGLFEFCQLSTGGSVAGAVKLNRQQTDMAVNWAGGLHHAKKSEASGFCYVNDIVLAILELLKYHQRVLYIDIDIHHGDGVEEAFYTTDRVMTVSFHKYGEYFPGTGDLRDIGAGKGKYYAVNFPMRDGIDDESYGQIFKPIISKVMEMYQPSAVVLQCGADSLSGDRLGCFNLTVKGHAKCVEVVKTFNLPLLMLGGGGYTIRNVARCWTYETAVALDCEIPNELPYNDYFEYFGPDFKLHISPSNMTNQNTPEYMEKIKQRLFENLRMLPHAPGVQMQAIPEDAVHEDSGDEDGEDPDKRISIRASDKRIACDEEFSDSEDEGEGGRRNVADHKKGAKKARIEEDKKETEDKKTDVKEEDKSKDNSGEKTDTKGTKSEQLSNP
UniProt Q13547: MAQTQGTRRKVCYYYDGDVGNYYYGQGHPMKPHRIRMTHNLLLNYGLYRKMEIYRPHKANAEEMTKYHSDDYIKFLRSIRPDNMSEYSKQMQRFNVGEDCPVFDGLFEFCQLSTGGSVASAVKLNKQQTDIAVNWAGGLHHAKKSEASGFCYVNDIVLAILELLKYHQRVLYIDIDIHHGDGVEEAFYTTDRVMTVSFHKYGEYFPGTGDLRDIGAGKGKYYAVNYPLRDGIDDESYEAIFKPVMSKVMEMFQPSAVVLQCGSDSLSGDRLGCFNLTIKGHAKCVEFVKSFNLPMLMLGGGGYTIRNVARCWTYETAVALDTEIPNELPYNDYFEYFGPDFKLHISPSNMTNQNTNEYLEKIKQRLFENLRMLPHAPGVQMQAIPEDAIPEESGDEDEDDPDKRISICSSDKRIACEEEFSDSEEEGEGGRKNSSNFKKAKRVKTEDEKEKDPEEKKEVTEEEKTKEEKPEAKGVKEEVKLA

Experiments:
[1] = molecular target: T1, Flag-tagged PFKL (liver-type phosphofructokinase), expressed in TFK1 cells (human) (UniProt P17858); test: co-IP; Flag-tagged PFKL in TFK1 cells, blots for zinc-dependent HDACs; lysis buffer 150 mM NaCl, 25 mM Tris-HCl, 0.5% NP-40; anti-FLAG-M2 magnetic beads
T1 sequence: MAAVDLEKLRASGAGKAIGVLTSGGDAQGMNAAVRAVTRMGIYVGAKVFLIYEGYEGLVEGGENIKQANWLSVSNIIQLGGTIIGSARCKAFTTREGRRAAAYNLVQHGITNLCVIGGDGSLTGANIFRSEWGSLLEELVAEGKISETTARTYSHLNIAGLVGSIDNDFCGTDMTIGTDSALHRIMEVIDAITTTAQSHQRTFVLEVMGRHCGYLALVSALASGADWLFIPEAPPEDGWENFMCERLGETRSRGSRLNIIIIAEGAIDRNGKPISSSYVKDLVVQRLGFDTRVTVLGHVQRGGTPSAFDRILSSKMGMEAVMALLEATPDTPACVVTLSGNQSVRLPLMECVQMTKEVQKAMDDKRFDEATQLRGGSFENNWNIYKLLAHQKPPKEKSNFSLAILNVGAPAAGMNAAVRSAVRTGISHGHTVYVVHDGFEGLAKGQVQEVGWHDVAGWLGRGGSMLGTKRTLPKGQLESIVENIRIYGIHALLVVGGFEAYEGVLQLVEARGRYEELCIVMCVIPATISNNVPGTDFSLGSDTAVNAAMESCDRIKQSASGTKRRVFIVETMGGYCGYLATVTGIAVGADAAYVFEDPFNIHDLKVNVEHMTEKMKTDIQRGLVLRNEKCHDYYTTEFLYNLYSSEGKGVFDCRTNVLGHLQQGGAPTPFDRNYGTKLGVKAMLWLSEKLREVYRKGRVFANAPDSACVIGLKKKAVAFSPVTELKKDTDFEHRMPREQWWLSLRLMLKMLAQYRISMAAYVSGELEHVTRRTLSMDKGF

[2] = molecular target: T2, PFKL, endogenous in TFK1 cells (human (endogenous in TFK1)) (UniProt P17858); test: co-IP; endogenous PFKL and class I HDACs in TFK1 whole-cell lysates and nuclear lysates
T2 sequence: T1 sequence

[3] = molecular target: T3, GST-PFKL, recombinant (human) (UniProt P17858); test: pull-down; GST-PFKL on glutathione beads (1 h, 4 °C), His-HDAC protein added (1.5 h, 4 °C), five washes, glutathione elution; Coomassie staining and immunoblot; both purified
T3 sequence: T1 sequence

| Substance | binding [1] | binding [2] | binding [3] |
| --- | --- | --- | --- |
| HDAC3, endogenous in TFK1 cells (from UniProt O15379 1-428) (enzyme) | binds | binds |  |
| HDAC2, endogenous in TFK1 cells (from UniProt Q92769 1-488) (enzyme) | binds | binds |  |

Results, then the substance that gave them:

| binding [1] | binding [2] | binding [3] | Substance |
| --- | --- | --- | --- |
| binds | binds |  | HDAC1, endogenous in TFK1 cells (from UniProt Q13547 1-482) (enzyme) |
|  |  | binds | His-HDAC2, recombinant (from UniProt Q92769 1-488) (enzyme) |
|  |  | binds | His-HDAC3, recombinant (from UniProt O15379 1-428) (enzyme) |
